# PubChem BioAssay AID1508587 | Peter MacCallum Cancer Centre | 2020
# Assay: 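Knockdowns that add to vemurafenib's cut in melanoma glycolysis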 (follow-up of hits)
# System: human WM266.4 melanoma cells with a BRAF V600 mutation
# Knock-down reagent: single siRNA against human genes, 25 nM
# Timing: 96 h
# Conditions: vemurafenib 300 nM (about IC25), given 48 h after transfection for 48 h
# Read-out: 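Per-cell lactate from absorbance divided by DAPI nucleus counts, compared with and without vemurafenib, relative to non-targeting siRNA, mean of 2 replicates; nuclear counts also give cell number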
# Direction: lactate per cell, drug vs no drug: higher = less drug-induced drop in lactate per cell; lactate per cell with vemurafenib: higher = more lactate per cell under drug; lactate per cell without drug: higher = more lactate per cell without drug; cell growth with vemurafenib and cell growth without drug: higher = more cell growth over 48 h
# Active means: 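a duplex is active when its lactate-per-cell ratio with versus without drug falls under 0.55, i.e. 2 SD below non-targeting; a gene is confirmed if 2 or more of 4 duplexes pass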
# Here is a random part of about 1,600 reagents. Over the whole deposit, 623 (39%) are marked active. 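Calls are for each duplex; lactate ratios contain extreme outliers.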 Reagents against one gene are numbered here.
gene knocked down,reagent no.,"lactate per cell, drug vs no drug",lactate per cell with vemurafenib,lactate per cell without drug,cell growth with vemurafenib,cell growth without drug,call
RPL36AL (ribosomal protein L36a like),1,0.56,0.52,0.63,0.55,0.96,inactive
RPL36AL (ribosomal protein L36a like),2,0.76,1.1,1.01,-0.02,0.09,inactive
RPL36AL (ribosomal protein L36a like),3,1.31,3.93,2,-0.05,0.06,inactive
RPL36AL (ribosomal protein L36a like),4,0.4,0.94,1.6,0.04,0.06,active
CD302 (CD302 molecule),1,0.51,1.03,1.19,0.55,0.56,active
CD302 (CD302 molecule),2,0.4,1.05,1.54,0.75,0.42,active
CD302 (CD302 molecule),3,0.52,3.08,3.48,0.05,-0.02,active
CD302 (CD302 molecule),4,0.52,0.42,0.48,0.2,0.52,active
SFXN3 (sideroflexin 3),1,0.37,3.01,5.88,0.11,-0.01,active
SFXN3 (sideroflexin 3),2,0.66,1.32,1.42,0.52,0.34,inactive
SFXN3 (sideroflexin 3),3,0.5,0.84,1.22,0.19,0.33,active
SFXN3 (sideroflexin 3),4,0.58,0.88,1.09,0.81,0.65,inactive
BEST1 (bestrophin 1),1,0.67,1.32,1.24,0.46,0.43,inactive
BEST1 (bestrophin 1),2,0.64,2.54,2.65,-0.03,-0.04,inactive
BEST1 (bestrophin 1),3,0.57,0.66,0.73,0.32,0.67,inactive
BEST1 (bestrophin 1),4,0.52,1.33,1.59,0.92,0.56,active
AARS1 (alanyl-tRNA synthetase 1),1,0.34,1.19,2.21,0.33,0.1,active
AARS1 (alanyl-tRNA synthetase 1),2,0.49,1.6,1.92,-0.01,0.03,active
AARS1 (alanyl-tRNA synthetase 1),3,0.34,0.53,0.9,0.17,0.3,active
AARS1 (alanyl-tRNA synthetase 1),4,0.54,1.18,1.27,0.92,0.65,active
MAPK6 (mitogen-activated protein kinase 6),1,0.64,2.3,2.27,0.35,0.2,inactive
MAPK6 (mitogen-activated protein kinase 6),2,0.42,0.74,1.1,0.43,0.48,active
MAPK6 (mitogen-activated protein kinase 6),3,0.46,0.56,0.76,0.57,0.72,active
MAPK6 (mitogen-activated protein kinase 6),4,0.6,1.67,1.78,0.21,0.19,inactive
YIPF6 (Yip1 domain family member 6),1,0.57,0.72,0.85,0.24,0.12,inactive
YIPF6 (Yip1 domain family member 6),2,0.73,1.12,1.03,0.39,0.62,inactive
YIPF6 (Yip1 domain family member 6),3,0.48,0.54,0.76,0.88,0.99,active
YIPF6 (Yip1 domain family member 6),4,0.72,1.16,1.08,0.96,1.11,inactive
PIEZO2 (piezo type mechanosensitive ion channel component 2),1,0.52,1.21,1.52,0.01,0.17,active
PIEZO2 (piezo type mechanosensitive ion channel component 2),2,0.55,0.53,0.64,0.24,0.63,inactive
PIEZO2 (piezo type mechanosensitive ion channel component 2),3,0.54,0.88,1.06,1.33,1.02,active
PIEZO2 (piezo type mechanosensitive ion channel component 2),4,0.91,1.55,1.15,0.25,0.38,inactive
TBC1D5 (TBC1 domain family member 5),1,0.18,0.23,0.86,0.22,0.28,active
TBC1D5 (TBC1 domain family member 5),2,0.78,1.73,1.54,-0.04,-0.04,inactive
TBC1D5 (TBC1 domain family member 5),3,0.74,1.15,1.04,0.99,0.99,inactive
TBC1D5 (TBC1 domain family member 5),4,0.68,3.06,3.07,0.2,0.06,inactive

A few values from above.
Under “cell growth without drug”, AARS1 (alanyl-tRNA synthetase 1) #2 has 0.03
BEST1 (bestrophin 1) #3, call → inactive
MAPK6 (mitogen-activated protein kinase 6) #2, call = active
PIEZO2 (piezo type mechanosensitive ion channel component 2) #4, lactate per cell without drug = 1.15
